Tests used:
[1] = Isothermal titration calorimetry (ITC) of Compound 2 into the sodium salt of 1; assay type: binding; details: 15% (v/v) acetonitrile-ddH2O, 25° C.
[2] = Spectrophotometric (UV/vis) titration of boronic acids 2 against the sodium salt of sulfenic acid 1, incl. reversibility with NaOH; details: 0.8 mM sodium salt of 1, 4.5 mM boronic acid, then 4.5 mM NaOH; 15% (v/v) acetonitrile-water, 22° C.

SMILES | Averaged ΔH [1] | Averaged ΔS (cal/mol/K) [1] | Reversibility of complex formation with sulfenic acid 1 [2]
OB1OCc2ccccc21 [Compound 2A, 2-(hydroxymethyl)benzeneboronic acid hemiester] | -6.6 ± 0.3 kcal/mol | −4.4 ± 0.3 cal/mol/K | 
OB(O)c1ccccc1 [Compound 2g, phenylboronic acid] | -9.3 ± 0.8 kcal/mol | −12 ± 6 cal/mol/K | 
OB(O)c1cccc(Br)c1 [Compound 2d, 3-Bromobenzene-boronic acid] | -4.7 ± 0.4 kcal/mol | −3.8 ± 1.9 cal/mol/K | reversible process that can be reversed by hydroxide

Reference: patent US8980544B2, “Boronic and borinic acid compounds as inhibitors of sulfenic acid-containing proteins” (The Penn State Research Foundation, priority 2012, dated 2015)
